This is an account of results in the supplement of paper PMC10849652.

Amino acid sequences for entries named in this document (tags omitted). A change or cut given only in a name is not applied to a line headed by its entry.
UniProt O14530: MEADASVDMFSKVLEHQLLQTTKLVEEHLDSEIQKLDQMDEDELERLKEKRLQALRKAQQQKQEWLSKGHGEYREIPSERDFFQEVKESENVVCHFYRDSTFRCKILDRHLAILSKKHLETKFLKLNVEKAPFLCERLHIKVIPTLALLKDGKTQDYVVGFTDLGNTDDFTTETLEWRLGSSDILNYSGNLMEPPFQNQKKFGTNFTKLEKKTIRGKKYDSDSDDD
UniProt P62253: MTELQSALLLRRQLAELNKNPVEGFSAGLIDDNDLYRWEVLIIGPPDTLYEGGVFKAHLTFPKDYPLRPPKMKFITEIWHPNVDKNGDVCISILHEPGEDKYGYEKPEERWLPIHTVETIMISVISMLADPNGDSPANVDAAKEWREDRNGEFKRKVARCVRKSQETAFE
UniProt Q9UJT0: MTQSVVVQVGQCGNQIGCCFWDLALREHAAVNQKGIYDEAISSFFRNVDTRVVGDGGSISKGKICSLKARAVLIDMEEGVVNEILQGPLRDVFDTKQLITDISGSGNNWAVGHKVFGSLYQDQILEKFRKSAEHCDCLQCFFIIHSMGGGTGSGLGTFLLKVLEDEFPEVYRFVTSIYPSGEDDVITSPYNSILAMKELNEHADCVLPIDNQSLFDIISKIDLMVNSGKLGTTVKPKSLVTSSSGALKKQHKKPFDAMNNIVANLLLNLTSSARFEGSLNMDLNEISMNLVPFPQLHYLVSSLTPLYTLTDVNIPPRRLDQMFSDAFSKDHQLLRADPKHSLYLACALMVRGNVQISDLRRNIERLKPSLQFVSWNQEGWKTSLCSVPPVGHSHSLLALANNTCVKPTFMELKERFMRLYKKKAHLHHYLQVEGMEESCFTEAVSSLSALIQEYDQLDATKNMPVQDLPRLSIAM
UniProt Q9NZI7: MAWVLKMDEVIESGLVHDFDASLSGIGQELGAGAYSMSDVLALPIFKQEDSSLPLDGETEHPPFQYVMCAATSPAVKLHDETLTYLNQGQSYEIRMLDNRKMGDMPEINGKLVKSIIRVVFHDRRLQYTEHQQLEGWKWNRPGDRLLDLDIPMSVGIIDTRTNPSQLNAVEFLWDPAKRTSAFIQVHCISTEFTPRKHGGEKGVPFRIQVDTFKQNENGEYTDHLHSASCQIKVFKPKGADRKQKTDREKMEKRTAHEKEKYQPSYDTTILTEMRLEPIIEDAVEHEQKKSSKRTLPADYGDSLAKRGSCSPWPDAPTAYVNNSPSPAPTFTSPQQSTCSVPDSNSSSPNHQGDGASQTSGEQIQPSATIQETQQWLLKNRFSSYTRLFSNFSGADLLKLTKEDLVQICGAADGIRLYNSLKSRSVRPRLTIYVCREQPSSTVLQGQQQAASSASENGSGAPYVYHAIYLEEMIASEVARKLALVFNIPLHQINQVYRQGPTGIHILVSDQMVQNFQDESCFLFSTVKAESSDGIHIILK
UniProt P68363, whole entry, looked up: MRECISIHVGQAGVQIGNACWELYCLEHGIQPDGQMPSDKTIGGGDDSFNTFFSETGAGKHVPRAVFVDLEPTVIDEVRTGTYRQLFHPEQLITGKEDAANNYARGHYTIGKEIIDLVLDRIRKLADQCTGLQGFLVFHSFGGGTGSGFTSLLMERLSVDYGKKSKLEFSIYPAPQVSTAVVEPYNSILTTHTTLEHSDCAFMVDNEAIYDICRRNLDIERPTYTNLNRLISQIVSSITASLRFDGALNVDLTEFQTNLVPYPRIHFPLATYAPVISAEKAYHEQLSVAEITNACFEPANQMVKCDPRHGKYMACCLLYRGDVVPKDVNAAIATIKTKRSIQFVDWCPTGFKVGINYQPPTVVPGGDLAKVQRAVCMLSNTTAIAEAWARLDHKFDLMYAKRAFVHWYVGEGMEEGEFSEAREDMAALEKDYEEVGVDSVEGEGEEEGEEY
UniProt O14562: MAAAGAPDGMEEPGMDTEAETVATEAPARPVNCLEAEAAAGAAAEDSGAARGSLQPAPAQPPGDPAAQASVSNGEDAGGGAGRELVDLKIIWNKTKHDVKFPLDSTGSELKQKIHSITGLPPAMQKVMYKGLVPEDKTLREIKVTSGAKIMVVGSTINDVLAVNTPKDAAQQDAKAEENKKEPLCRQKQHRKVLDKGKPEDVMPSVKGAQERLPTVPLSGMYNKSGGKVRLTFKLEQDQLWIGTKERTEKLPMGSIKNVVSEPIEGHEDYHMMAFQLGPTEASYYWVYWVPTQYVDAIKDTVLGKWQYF
UniProt Q9C0C9: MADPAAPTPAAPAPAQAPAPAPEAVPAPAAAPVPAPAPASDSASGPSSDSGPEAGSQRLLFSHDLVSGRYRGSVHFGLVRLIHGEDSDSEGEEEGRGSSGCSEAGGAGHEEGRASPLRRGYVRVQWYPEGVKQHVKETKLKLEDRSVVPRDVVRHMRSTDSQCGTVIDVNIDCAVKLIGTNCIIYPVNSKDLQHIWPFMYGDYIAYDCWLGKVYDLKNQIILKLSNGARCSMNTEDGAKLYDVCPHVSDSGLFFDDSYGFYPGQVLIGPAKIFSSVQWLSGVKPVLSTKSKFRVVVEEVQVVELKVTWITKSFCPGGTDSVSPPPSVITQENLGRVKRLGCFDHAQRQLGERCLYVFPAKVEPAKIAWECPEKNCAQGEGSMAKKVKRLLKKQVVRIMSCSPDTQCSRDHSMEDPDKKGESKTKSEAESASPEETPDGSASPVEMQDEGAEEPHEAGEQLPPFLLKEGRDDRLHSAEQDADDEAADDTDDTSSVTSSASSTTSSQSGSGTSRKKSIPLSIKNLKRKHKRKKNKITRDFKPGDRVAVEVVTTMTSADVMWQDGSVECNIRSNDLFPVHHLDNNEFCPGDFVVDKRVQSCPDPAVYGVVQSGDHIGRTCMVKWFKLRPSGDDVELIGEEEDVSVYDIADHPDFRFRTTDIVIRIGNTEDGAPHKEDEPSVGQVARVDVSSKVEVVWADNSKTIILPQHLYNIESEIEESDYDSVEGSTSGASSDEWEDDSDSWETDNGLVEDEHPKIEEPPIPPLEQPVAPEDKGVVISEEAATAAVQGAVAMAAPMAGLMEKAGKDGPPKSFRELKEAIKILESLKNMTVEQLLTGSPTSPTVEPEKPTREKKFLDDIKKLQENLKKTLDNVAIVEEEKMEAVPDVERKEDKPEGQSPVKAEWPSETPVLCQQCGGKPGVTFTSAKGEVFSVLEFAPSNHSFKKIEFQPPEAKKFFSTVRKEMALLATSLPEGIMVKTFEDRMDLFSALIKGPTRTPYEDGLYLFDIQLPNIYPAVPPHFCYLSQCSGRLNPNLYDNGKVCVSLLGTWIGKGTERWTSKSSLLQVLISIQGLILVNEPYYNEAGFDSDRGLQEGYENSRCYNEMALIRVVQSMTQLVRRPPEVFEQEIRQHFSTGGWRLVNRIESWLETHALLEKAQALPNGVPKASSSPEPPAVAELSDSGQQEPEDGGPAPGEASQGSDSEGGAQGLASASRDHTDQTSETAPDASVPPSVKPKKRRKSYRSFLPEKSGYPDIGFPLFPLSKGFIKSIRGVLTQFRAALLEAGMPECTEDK
UniProt Q9NPD8: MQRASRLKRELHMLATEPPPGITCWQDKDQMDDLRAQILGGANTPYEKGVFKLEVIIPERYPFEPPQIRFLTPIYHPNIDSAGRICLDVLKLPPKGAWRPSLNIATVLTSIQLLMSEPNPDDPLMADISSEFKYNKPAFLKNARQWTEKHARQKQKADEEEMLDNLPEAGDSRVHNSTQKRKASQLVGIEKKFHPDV
UniProt P63279, whole entry, looked up: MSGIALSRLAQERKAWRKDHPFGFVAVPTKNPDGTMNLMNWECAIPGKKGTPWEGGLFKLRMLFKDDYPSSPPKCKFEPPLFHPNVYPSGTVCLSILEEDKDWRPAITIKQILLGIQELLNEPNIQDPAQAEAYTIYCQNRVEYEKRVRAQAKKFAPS
UniProt P62256: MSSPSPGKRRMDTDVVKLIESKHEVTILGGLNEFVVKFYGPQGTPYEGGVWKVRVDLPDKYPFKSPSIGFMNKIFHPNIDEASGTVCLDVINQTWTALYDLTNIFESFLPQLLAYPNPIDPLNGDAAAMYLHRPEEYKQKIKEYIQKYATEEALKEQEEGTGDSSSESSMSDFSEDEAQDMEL
UniProt P26368, whole entry, looked up: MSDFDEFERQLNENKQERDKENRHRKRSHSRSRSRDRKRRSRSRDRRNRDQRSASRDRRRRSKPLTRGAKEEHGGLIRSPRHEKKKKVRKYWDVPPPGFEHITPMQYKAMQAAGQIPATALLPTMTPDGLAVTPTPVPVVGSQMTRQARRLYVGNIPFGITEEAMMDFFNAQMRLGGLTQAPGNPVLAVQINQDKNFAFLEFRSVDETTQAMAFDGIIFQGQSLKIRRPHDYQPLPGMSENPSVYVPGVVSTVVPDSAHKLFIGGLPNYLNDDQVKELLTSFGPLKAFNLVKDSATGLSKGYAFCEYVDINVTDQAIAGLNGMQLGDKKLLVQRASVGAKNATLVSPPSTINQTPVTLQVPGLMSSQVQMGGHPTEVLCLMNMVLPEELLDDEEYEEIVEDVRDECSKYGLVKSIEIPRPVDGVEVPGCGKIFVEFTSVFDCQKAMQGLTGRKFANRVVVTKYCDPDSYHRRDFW
UniProt Q9H832: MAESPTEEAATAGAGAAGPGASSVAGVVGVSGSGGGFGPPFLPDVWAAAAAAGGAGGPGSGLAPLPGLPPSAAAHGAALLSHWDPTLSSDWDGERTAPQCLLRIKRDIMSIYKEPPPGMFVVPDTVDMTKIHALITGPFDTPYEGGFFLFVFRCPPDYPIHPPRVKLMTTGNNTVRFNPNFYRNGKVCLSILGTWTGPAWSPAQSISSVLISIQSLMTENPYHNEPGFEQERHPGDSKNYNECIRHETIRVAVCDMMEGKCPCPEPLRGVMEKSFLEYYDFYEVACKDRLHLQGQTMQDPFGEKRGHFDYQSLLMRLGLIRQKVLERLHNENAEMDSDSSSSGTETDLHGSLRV
UniProt Q92575: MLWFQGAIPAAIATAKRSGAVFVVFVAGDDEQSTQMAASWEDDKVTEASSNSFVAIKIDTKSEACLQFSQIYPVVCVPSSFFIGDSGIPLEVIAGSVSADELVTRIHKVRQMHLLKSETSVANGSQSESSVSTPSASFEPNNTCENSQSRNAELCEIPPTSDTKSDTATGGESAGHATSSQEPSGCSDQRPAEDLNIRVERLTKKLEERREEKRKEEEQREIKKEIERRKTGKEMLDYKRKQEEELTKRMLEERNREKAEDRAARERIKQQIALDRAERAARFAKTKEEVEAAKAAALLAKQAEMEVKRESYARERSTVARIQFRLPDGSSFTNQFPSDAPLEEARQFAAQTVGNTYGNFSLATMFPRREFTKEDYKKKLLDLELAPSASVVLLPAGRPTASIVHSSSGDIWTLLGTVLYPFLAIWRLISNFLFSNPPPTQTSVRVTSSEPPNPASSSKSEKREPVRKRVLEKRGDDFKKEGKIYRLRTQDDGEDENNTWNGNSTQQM
UniProt P49459, whole entry, looked up: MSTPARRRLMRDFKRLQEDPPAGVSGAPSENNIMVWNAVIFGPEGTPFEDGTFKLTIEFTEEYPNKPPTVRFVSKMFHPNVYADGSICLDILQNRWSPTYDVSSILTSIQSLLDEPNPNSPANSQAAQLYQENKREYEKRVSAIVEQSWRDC
UniProt O15042: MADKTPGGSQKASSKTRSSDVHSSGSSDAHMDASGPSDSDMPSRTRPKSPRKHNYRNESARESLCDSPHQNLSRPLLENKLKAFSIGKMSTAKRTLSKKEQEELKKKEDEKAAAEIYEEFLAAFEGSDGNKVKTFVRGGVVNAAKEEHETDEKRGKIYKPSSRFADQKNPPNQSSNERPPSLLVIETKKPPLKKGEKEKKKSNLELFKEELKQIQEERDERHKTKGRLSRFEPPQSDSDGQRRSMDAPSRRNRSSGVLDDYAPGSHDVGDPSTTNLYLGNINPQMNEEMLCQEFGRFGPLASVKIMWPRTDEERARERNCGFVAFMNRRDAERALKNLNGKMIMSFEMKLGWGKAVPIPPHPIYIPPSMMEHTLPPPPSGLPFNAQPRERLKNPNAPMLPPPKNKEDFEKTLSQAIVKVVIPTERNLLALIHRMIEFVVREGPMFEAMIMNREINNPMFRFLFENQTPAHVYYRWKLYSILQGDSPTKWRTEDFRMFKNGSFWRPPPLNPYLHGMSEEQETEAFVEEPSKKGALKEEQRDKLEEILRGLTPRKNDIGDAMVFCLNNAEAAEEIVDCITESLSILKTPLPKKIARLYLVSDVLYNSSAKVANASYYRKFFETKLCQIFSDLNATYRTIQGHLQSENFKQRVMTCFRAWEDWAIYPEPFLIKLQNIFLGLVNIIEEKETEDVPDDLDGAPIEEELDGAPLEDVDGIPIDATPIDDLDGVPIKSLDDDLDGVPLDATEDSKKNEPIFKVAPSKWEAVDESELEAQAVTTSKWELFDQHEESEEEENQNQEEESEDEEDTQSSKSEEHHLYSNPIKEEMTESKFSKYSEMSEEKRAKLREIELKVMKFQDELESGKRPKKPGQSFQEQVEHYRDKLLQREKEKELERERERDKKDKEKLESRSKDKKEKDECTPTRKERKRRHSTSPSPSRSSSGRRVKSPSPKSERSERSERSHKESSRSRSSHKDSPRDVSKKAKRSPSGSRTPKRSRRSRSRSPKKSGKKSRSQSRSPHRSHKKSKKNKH

Some of the results follow.

Compound in the assay: CCCS(=O)(=O)Nc1ccc(F)c(C(=O)c2c[nH]c3ncc(-c4ccc(Cl)cc4)cc23)c1F [vemurafenib]
Kind of assay: log2 fold change, soluble protein after heating vs DMSO (PISA); higher = thermal stabilisation; K562 lysate, 10 uM; active = over 0.2 and 3.5 SD of the protein, either way, in both replicates (recomputed). The method, boiled down:
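Following dounce homogenisation of K562 pellets in PBS pH 7.4 with 1 mM MgCl2, crude extract at 1 mg/mL protein was incubated for 30 min with 10 μM compound. Aliquots were then heated for 3 min over 48°C-58°C and pooled, NP-40 was added to 0.5% at 4°C, and soluble protein was recovered as the supernatant at 21,000xg for 90 min. Channel-sum-equalised TMTpro 16plex LC-MS/MS quantified this protein. Each value, from duplicates, is a log-two fold change in thermal stability relative to solvent controls.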
As to TXNDC9 (UniProt O14530), the log2 fold change was inactive: 0.001. Under UBE2G1 (UniProt P62253) stands inactive: 0.004; under TUBE1 (UniProt Q9UJT0), inactive: 0.036.

In the case of UBP1 (UniProt Q9NZI7), the log2 fold change is inactive: -0.014.

In the case of UCK1 isoform 4 (UniProt Q9HA47), the log2 fold change was inactive: 0.001. As for TUBA1B (UniProt P68363), the log2 fold change was inactive: 0.009.

With UBFD1 (UniProt O14562), the log2 fold change is inactive: 0.022. Then UBQLN2 (UniProt Q9UHD9), with inactive: -0.01. Under UBE2O (UniProt Q9C0C9) stands inactive: 0.075; under UBA6, inactive: 0.009; under UBE2T (UniProt Q9NPD8), inactive: -0.01. Then UBE2I (UniProt P63279), with inactive: -0.03; and TUSC3 isoform 2 (UniProt Q13454), with inactive: 0.064; and UBR5 (UniProt O95071), with inactive: 0.004.

With UBE2H (UniProt P62256), the log2 fold change is inactive: -0.032. Then UBXN6 (UniProt Q9BZV1), with inactive: 0.046; and U2AF2 (UniProt P26368), with inactive: 0.011. Then UBE2Z (UniProt Q9H832), with inactive: -0.009; and UBXN4 (UniProt Q92575), with inactive: 0.064; and UAP1L1 (UniProt Q3KQV9), with inactive: -0.15.

As for UBR2 isoform 4 (UniProt Q8IWV8), the log2 fold change was inactive: -0.025. Under UBXN10 (UniProt Q96LJ8) stands inactive: 0.008; under UBE2A (UniProt P49459), inactive: 0.038. As for U2SURP (UniProt O15042), the log2 fold change is inactive: -0.006.
